# Data published in PubChem BioAssay AID2517 (National Center for Advancing Translational Sciences (NCATS), 2010).
# By UniProt entry, the sequences of proteins in these tests, tags left out.
# UniProt P27695, whole entry, looked up: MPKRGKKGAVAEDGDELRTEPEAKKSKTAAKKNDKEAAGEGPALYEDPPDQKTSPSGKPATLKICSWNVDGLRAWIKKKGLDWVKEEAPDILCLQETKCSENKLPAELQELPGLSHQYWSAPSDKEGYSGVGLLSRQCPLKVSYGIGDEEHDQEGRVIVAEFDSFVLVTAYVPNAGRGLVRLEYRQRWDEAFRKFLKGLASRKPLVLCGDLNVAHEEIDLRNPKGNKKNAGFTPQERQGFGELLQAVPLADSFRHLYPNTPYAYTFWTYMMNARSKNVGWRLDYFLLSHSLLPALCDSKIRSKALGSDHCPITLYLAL
# Where “and” joins values, the source holds several entries; their conditions need not be identical. Identical values can stand only once. Out of some 350,000 compounds screened, about 1,200 (0.34%) were called active. The inconclusive results got no clear call from the source; some entries with a clear call stand among them for comparison. Calls come from the whole dose curve; as a rule, active = well fitted inhibition curve with a large enough effect; inconclusive = small, poorly fitted or top-dose-only effect; inactive = no such curve, though single readings can be large or run the other way. Where the call is inconclusive, the potency comes from a doubtful curve fit.
# Target: DNA repair nuclease/redox regulator APEX1 (Homo sapiens) (UniProt P27695)
# Assay: qHTS Assay for Inhibitors of the Human Apurinic/apyrimidinic Endonuclease 1 (APE1); note: nearly all actives have a fitted effect of over 55% in size;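 for activity change, negative = inhibition: plate controls were vehicle for no effect and reference inhibitor for full effect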
# Conditions: recombinant APE1, TAMRA/BHQ-2 abasic DNA cleavage fluorescence; activity change, negative = inhibition: at 65.8 µM (top of the series)
# Procedure, shortened: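 Endonuclease cleavage of a quenched abasic-site DNA duplex (50 nM) by APE1 (0.75 nM) was tracked by TAMRA dequenching. Compounds were preincubated with enzyme 15 min at room temperature; data normalized to buffer-only and DMSO wells plus NSC13755 control.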
# Potency is the fitted concentration of half-maximal effect.
Compound,Potency,"activity change, negative = inhibition"
Cc1cc(-c2ccccc2)nc(N2CCC(C(=O)NCc3ccccc3Cl)CC2)n1,"inconclusive: 11.2 µM [inhibitor, full curve, poor fit]",–
CCOC(=O)c1c(N)sc(N)c1C(=O)OCC,"inconclusive: 7.08 µM [inhibitor, single point]",–
O=C(O)c1cccc(Cn2c(Cl)c(/C=N/NC(=O)c3ccccc3)sc2=O)c1,–,inactive: 2.67%
COc1ccc(C(=O)Nc2ccccc2C(=O)NC(Cc2ccc(O)cc2)C(=O)NNC(=O)c2ccccc2Cl)cc1 (stereo unspecified),"inconclusive: 39.8 µM [inhibitor, single point]",–
CC(C)OC(=O)CSc1nc2ncccc2[nH]1,"inconclusive: 44.7 µM [inhibitor, single point]",–
CN(C)c1ccc(-c2nc(N(C)C)c3ccccc3n2)cc1,"inconclusive: 31.6 µM [inhibitor, partial curve]",–
O=C(CSc1ncnc2scc(-c3ccccc3)c12)Nc1ccc(C(=O)O)cc1,–,inactive: -1.11%
CC1CCN(c2nc(N(C)c3ccccc3)nc(N)c2[N+](=O)[O-])CC1,"inconclusive: 35.5 µM [inhibitor, single point]",–
Cc1cccc(OCc2nnc(SCC(=O)N3CC(=O)Nc4ccccc43)o2)c1,"inconclusive: 31.6 µM [inhibitor, partial curve]",–
CC(C)(C)n1ncc2c(=O)n(Cc3cc(F)c(F)cc3Cl)cnc21,"inconclusive: 44.7 µM [inhibitor, single point]",–
CCOc1ccc(/C=N/NC(=O)c2cc3c(OC)cccc3[nH]2)cc1,–,inactive: -27.8%
O=C(CSc1nnc(-c2ccc(OC(F)F)cc2)o1)NC(=O)NCc1ccco1,"inconclusive: 35.5 µM [inhibitor, single point]",–
COc1ccccc1NS(=O)(=O)c1ccc(O)c(C(=O)OCC(=O)N2CCc3ccccc32)c1,"inconclusive: 31.6 µM [inhibitor, single point]",–
O=C(Oc1ccc(OC(=O)C2CCC2)cc1)C1CCC1,"inconclusive: 22.4 µM [inhibitor, partial curve]",–
COc1ccc(OCC(=O)OCC(=O)Nc2ccc(S(=O)(=O)N3CCCCC3)cc2)cc1,"inconclusive: 35.5 µM [inhibitor, single point]",–
Cc1cc(C)cc(C(=O)NCC(=O)OCC(=O)N2c3ccccc3NC(=O)C2(C)C)c1,"inconclusive: 14.1 µM [inhibitor, partial curve]",–
N#Cc1c(-c2ccccc2)c(-c2ccccc2)nn(CC(=O)NNC(=O)Nc2ccccc2)c1=O,"inconclusive: 2 µM [inhibitor, full curve]",–
Cc1ccc2nc(C)cc(C(=O)OCC(=O)Nc3c(C)n(C)n(-c4ccccc4)c3=O)c2c1,–,inactive: -4.57%
Cc1nnc(SCc2ccccc2Cl)n1CC1CCCO1 (stereo unspecified),"inconclusive: 44.7 µM [inhibitor, single point]",–
CNc1ccccc(-c2ccc3cc4c(cc3n2)OCO4)c1=O,"inconclusive: 35.5 µM [inhibitor, single point]",–
CN(C)CCCOc1ccc2c(c1)Sc1ccccc1CC2=O,"inconclusive: 3.55 µM [inhibitor, single point]",–

Compound,Potency,"activity change, negative = inhibition"
CC(C)n1c(=S)[nH]c2scc(-c3cccs3)c2c1=O,"inconclusive: 31.6 µM [inhibitor, single point]",–
O=C1C=CCC(/C=C/c2ccccc2)O1 (stereo unspecified),"inconclusive: 5.62 µM [inhibitor, single point]",–
COc1ccc(CNc2nc3nc(C)c(Cl)c(C)n3n2)cc1,"inconclusive: 7.08 µM [inhibitor, single point]",–
Cc1ccc(-n2c(Cc3cccn3C)nnc2SCC(=O)NCc2ccco2)cc1,–,inactive: -4.83%
COc1ccccc1/C=N/NC(=O)c1ccc(N(C)S(=O)(=O)c2ccccc2)cc1,"inconclusive: 20 µM [inhibitor, single point]",–
COc1ccc(NC(=S)Nc2ccc3snnc3c2)cc1,"inconclusive: 35.5 µM [inhibitor, single point]",–
CCN(C(=O)CSc1nnc(-c2ccncc2)n1C)C1CCS(=O)(=O)C1 (stereo unspecified),"inconclusive: 25.1 µM [inhibitor, single point]",–
CCCCCCC1=Cc2cc(OC)c(OC)cc2C(CC(=O)/C=C/OC)O1 (stereo unspecified),"inconclusive: 7.08 µM [inhibitor, single point]",–
COc1ccc(C(=O)Nc2ccc3oc(-c4cccc(Cl)c4)cc(=O)c3c2O)cc1,"inconclusive: 3.98 µM [inhibitor, single point]",–
CCN(CC)S(=O)(=O)c1cccc(S(=O)(=O)N2CCCCC2)c1,"inconclusive: 0.126 µM [inhibitor, full curve, poor fit]",–
CCOc1cc(/C=N/NC(=O)c2ccc(O)cc2)ccc1Oc1nc(Cl)ncc1F,–,inactive: -4.29%
Cc1ccc(-c2cc3nc(-c4ccccc4)cc(N)n3n2)cc1,"inconclusive: 28.2 µM [inhibitor, single point]",–
CCOC(=O)C1(Cc2cccc(OC)c2)CCN(Cc2cccnc2)CC1,"inconclusive: 44.7 µM [inhibitor, single point]",–
Cc1cc(C)c(S(=O)(=O)/N=C2/C=C(Sc3ncn[nH]3)C(=O)c3ccccc32)cc1C,"inconclusive: 0.1 µM [inhibitor, full curve, poor fit]",–
COc1ccc(NC(=S)N2CCN(c3ccccc3)CC2)c(OC)c1,–,inactive: -6.46%
CC(C)Cn1c2c(c(O)c(C(=O)Nn3c(Cc4ccccc4)nc4ccccc4c3=O)c1=O)CCCC2,–,inactive: -0.588%
N[C@@H](CSS(=O)(=O)O)C(=O)O,"inactive and inconclusive: 39.8 µM [inhibitor, single point]",–
Cc1ccc(CNC(=O)CNS(=O)(=O)c2ccc3nc(C)sc3c2)cc1,"inconclusive: 15.8 µM [inhibitor, partial curve, poor fit]",–
COc1cc2ccc(=O)oc2cc1OCC(O)C(C)(C)O (stereo unspecified),"inconclusive: 35.5 µM [inhibitor, single point]",–
CCOc1ccc(NC(=S)N2c3ccccc3CC2C)cc1 (stereo unspecified),"inconclusive: 39.8 µM [inhibitor, partial curve, poor fit]",–
